# This is one part of the list. Many values rest on one well or one pass, so single values are uncertain.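 Imaging used 1,536-well plates; nuclei positive for cleaved PARP by antibody were divided by total DNA-stained nuclei to yield the apoptosis fraction. Doses for screening kept most cells viable, and cell lines differ markedly in resting and induced cleaved-PARP levels.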
# What was measured:
# Assay in all cases: cleaved PARP positive nuclei fraction relative to DMSO control; melanoma cells; higher = more apoptosis
# Settings in all cases: library dose: low library concentration; 72 h
# 501Mel = system: 501Mel
# A101D = system: A101D
# A2058 = system: A2058
# A375 = system: A375
# C32 = system: C32
# CBRC013 = system: CBRC013 (line from a melanoma biopsy)
# CBRC014 = system: CBRC014 (line from a melanoma biopsy)
# CBRC016 = system: CBRC016 (line from a melanoma biopsy)
# CBRC017 = system: CBRC017 (line from a melanoma biopsy)
# CBRC008 = system: CBRC008 (line from a melanoma biopsy)
SMILES,cleaved PARP positive nuclei fraction (501Mel) [%],cleaved PARP positive nuclei fraction (A101D) [%],cleaved PARP positive nuclei fraction (A2058) [%],cleaved PARP positive nuclei fraction (A375) [%],cleaved PARP positive nuclei fraction (C32) [%],cleaved PARP positive nuclei fraction (CBRC013) [%],cleaved PARP positive nuclei fraction (CBRC014) [%],cleaved PARP positive nuclei fraction (CBRC016) [%],cleaved PARP positive nuclei fraction (CBRC017) [%],cleaved PARP positive nuclei fraction (CBRC008) [%]
"COCC[n+]1c2c(n(Cc3cnccn3)c1C)C(=O)c1ccccc1C2=O + Cn1cc(/C=C2\C(=O)Nc3cccnc32)c2ccccc21 [GW441756] (first compound 0.0004 µM, partner dose 0.4 µM)",166,199,229,261,50.3,52.8,100,45.8,322,–
"COc1cc(Nc2ncc(F)c(Nc3ccc4c(n3)NC(=O)C(C)(C)O4)n2)cc(OC)c1OC [Tamatinib] + COc1ccc2c(c1)CCC1C2CCC2(C)C(NCCCCCCN3C(=O)C=CC3=O)CCC12 [U73122] (first compound 0.4 µM, partner dose 0.4 µM)",105,195,126,191,78.9,64.9,97.2,38.9,119,–
"C=CCn1c(=O)c2cnc(Nc3ccc(N4CCN(C)CC4)cc3)nc2n1-c1cccc(C(C)(C)O)n1 + Cn1cc(/C=C2\C(=O)Nc3cccnc32)c2ccccc21 [GW441756] (first compound 0.02 µM, partner dose 0.4 µM)",110,100,190,235,117,241,114,89.6,79,–
"Cn1cncc1[C@@](N)(c1ccc(Cl)cc1)c1ccc2c(c1)c(-c1cccc(Cl)c1)cc(=O)n2C [tipifarnib] + CCc1ccc(CCOc2ccc(CC3SC(=O)NC3=O)cc2)nc1 [pioglitazone] (first compound 0.01 µM, partner dose 2 µM)",106,42.7,98.3,112,90.2,85.6,102,83.2,94.3,–
"Cn1cncc1[C@@](N)(c1ccc(Cl)cc1)c1ccc2c(c1)c(-c1cccc(Cl)c1)cc(=O)n2C [tipifarnib] + O=C(O)C(=O)Nc1sc2c(c1C(=O)O)CCNC2 [TCS401] (first compound 0.01 µM, partner dose 1.66667 µM)",88.4,42.2,188,173,162,190,91.2,47.4,216,–
"Cc1ccc(NC(=O)c2cccc(N(C)C)c2)cc1NC(=O)c1ccc(O)cc1 + CCCCCCCCCCCC1=C(O)C(=O)C=C(O)C1=O [Embelin] (first compound 2 µM, partner dose 1.2 µM)",93.5,141,25,26.7,132,134,123,64.6,71.7,–
"Nc1cccc2c1CN(C1CCC(=O)NC1=O)C2=O (configuration not stated) [lenalidomide] + COC(=O)c1sccc1S(=O)(=O)Nc1ccc(Nc2ccccc2)cc1OC [GSK0660] (first compound 1 µM, partner dose 1 µM)",78.6,32.1,148,49.1,279,227,86.1,82.1,76.9,–
"Cc1nc(Nc2ncc(C(=O)Nc3c(C)cccc3Cl)s2)cc(N2CCN(CCO)CC2)n1 [dasatanib] + Cc1cc([N+](=O)[O-])ccc1NS(=O)(=O)c1cc(Cl)ccc1Cl [FH535] (first compound 0.004 µM, partner dose 1 µM)",94.4,149,116,147,250,58.7,148,1100,291,–
"Cn1cncc1[C@@](N)(c1ccc(Cl)cc1)c1ccc2c(c1)c(-c1cccc(Cl)c1)cc(=O)n2C [tipifarnib] + COc1ccc(COc2ccc(Cc3cnc(N)nc3N)cc2OC)cc1 [GW2580] (first compound 0.01 µM, partner dose 1 µM)",180,321,92.4,155,175,79.7,76.4,47.4,73.4,–
"OCc1c[nH]c2ccccc12 [Indole-3-carbinol] + Cn1cc(/C=C2\C(=O)Nc3cccnc32)c2ccccc21 [GW441756] (first compound 0.8 µM, partner dose 0.4 µM)",52.7,55.4,72.7,–,86,–,83,65.7,88.1,28.9
"C=CCNC1=C2C[C@@H](C)C[C@H](OC)[C@H](O)[C@@H](C)/C=C(\C)[C@H](OC(N)=O)[C@@H](OC)/C=C\C=C(/C)C(=O)NC(=CC1=O)C2=O [Tanespimycin] + N#Cc1c(O)c2c(-c3ccc(-c4ccccc4O)cc3)csc2[nH]c1=O [A769662] (first compound 0.002 µM, partner dose 2 µM)",70.5,24.2,54.7,–,466,–,90.9,25.7,73.5,295
"Clc1ccc(Nc2nnc(Cc3ccncc3)c3ccccc23)cc1 [vatalanib] + O=S(=O)(c1ccccc1)N(CC(F)(F)F)c1ccc(C(O)(C(F)(F)F)C(F)(F)F)cc1 [T0901317] (first compound 2 µM, partner dose 1.4 µM)",162,73.4,82.8,–,137,–,122,94.2,87.8,438
"C=CCn1c(=O)c2cnc(Nc3ccc(N4CCN(C)CC4)cc3)nc2n1-c1cccc(C(C)(C)O)n1 + N#Cc1c(O)c2c(-c3ccc(-c4ccccc4O)cc3)csc2[nH]c1=O [A769662] (first compound 0.02 µM, partner dose 2 µM)",76.6,64.7,133,128,108,481,111,38.1,95.5,–
"C=CCn1c(=O)c2cnc(Nc3ccc(N4CCN(C)CC4)cc3)nc2n1-c1cccc(C(C)(C)O)n1 + O=C(O)C(=O)Nc1sc2c(c1C(=O)O)CCNC2 [TCS401] (first compound 0.02 µM, partner dose 1.66667 µM)",83.5,95.6,224,682,32.6,92.1,106,19,93.1,–
"COCC[n+]1c2c(n(Cc3cnccn3)c1C)C(=O)c1ccccc1C2=O + COc1cc(N2CCC(N3CCN(C)CC3)CC2)ccc1Nc1ncc(Cl)c(Nc2ccccc2S(=O)(=O)C(C)C)n1 [NVP-TAE684] (first compound 0.0004 µM, partner dose 0.08 µM)",35.6,72.5,117,191,26.2,281,104,68.8,69.4,–
"O=C(Nc1cccc(Cl)c1)Nc1ncc(CCNc2ncnc3ccsc23)s1 + N#Cc1c(O)c2c(-c3ccc(-c4ccccc4O)cc3)csc2[nH]c1=O [A769662] (first compound 0.0008 µM, partner dose 2 µM)",68.4,113,159,153,368,177,84.8,66.8,70,–
"COCC[n+]1c2c(n(Cc3cnccn3)c1C)C(=O)c1ccccc1C2=O + O=C1NC(=O)/C(=C/c2ccc(-c3ccc(F)cc3O)o2)S1 [AS252424] (first compound 0.0004 µM, partner dose 1 µM)",62.5,60.3,72.9,57,42.9,52.6,83.2,103,61.6,–
"O=C(CCCCCCC(=O)Nc1ccccc1)NO [vorinostat] + COc1cc(N2CCC(N3CCN(C)CC3)CC2)ccc1Nc1ncc(Cl)c(Nc2ccccc2S(=O)(=O)C(C)C)n1 [NVP-TAE684] (first compound 0.08 µM, partner dose 0.08 µM)",44,114,122,41.9,84.9,271,84.6,56.1,89.3,–
"OCc1c[nH]c2ccccc12 [Indole-3-carbinol] + O=C(O)C(=O)Nc1sc2c(c1C(=O)O)CCNC2 [TCS401] (first compound 0.8 µM, partner dose 1.66667 µM)",145,60.3,23.3,–,35.3,–,75.8,86.8,186,46.9
"OCc1c[nH]c2ccccc12 [Indole-3-carbinol] + CCCCCCCCCCCC1=C(O)C(=O)C=C(O)C1=O [Embelin] (first compound 0.8 µM, partner dose 1.2 µM)",62.3,16.8,103,–,79.4,–,86.2,29.7,105,472
"O=C(CCCCCCC(=O)Nc1ccccc1)NO [vorinostat] + N#Cc1c(O)c2c(-c3ccc(-c4ccccc4O)cc3)csc2[nH]c1=O [A769662] (first compound 0.08 µM, partner dose 2 µM)",99.7,55.3,178,58.3,184,123,93.5,114,176,–
"O=C(Nc1cccc(Cl)c1)Nc1ncc(CCNc2ncnc3ccsc23)s1 + Cc1cc([N+](=O)[O-])ccc1NS(=O)(=O)c1cc(Cl)ccc1Cl [FH535] (first compound 0.0008 µM, partner dose 1 µM)",123,325,290,48.8,68.2,224,150,2610,233,–
"CC1(C)NC(=O)N(c2ccc([N+](=O)[O-])c(C(F)(F)F)c2)C1=O [nilutamide] + COC(=O)c1sccc1S(=O)(=O)Nc1ccc(Nc2ccccc2)cc1OC [GSK0660] (first compound 1 µM, partner dose 1 µM)",142,142,107,45.4,98.6,77.1,190,35.9,74.2,–

# Two entries drawn at random from the list so far, as already listed:
SMILES,cleaved PARP positive nuclei fraction (501Mel) [%],cleaved PARP positive nuclei fraction (A101D) [%],cleaved PARP positive nuclei fraction (A2058) [%],cleaved PARP positive nuclei fraction (A375) [%],cleaved PARP positive nuclei fraction (C32) [%],cleaved PARP positive nuclei fraction (CBRC013) [%],cleaved PARP positive nuclei fraction (CBRC014) [%],cleaved PARP positive nuclei fraction (CBRC016) [%],cleaved PARP positive nuclei fraction (CBRC017) [%],cleaved PARP positive nuclei fraction (CBRC008) [%]
"Cc1nc(Nc2ncc(C(=O)Nc3c(C)cccc3Cl)s2)cc(N2CCN(CCO)CC2)n1 [dasatanib] + Cc1cc([N+](=O)[O-])ccc1NS(=O)(=O)c1cc(Cl)ccc1Cl [FH535] (first compound 0.004 µM, partner dose 1 µM)",94.4,149,116,147,250,58.7,148,1100,291,–
"COCC[n+]1c2c(n(Cc3cnccn3)c1C)C(=O)c1ccccc1C2=O + O=C1NC(=O)/C(=C/c2ccc(-c3ccc(F)cc3O)o2)S1 [AS252424] (first compound 0.0004 µM, partner dose 1 µM)",62.5,60.3,72.9,57,42.9,52.6,83.2,103,61.6,–

# Source: the supplement of paper PMC4604168 (melanoma cell lines)
